Assay results as given in paper doi:10.1101/2025.05.28.656718.
No constants are given. Whether binding was seen depends on the method and setting. Binding seen in cells or lysates may run through a third protein. Here binding means that the protein was enriched with, or labelled near, the bait; the list need not be complete.

The chains behind the UniProt entries cited, without tags or fusion partners.
UniProt P21796: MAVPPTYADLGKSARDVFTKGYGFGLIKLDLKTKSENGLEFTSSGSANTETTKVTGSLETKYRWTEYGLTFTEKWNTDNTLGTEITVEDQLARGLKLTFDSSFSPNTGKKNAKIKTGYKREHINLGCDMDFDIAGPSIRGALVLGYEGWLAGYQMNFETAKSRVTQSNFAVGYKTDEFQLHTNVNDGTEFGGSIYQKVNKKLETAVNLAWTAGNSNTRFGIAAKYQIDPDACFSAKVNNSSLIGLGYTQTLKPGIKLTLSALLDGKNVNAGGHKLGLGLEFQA
UniProt P14618: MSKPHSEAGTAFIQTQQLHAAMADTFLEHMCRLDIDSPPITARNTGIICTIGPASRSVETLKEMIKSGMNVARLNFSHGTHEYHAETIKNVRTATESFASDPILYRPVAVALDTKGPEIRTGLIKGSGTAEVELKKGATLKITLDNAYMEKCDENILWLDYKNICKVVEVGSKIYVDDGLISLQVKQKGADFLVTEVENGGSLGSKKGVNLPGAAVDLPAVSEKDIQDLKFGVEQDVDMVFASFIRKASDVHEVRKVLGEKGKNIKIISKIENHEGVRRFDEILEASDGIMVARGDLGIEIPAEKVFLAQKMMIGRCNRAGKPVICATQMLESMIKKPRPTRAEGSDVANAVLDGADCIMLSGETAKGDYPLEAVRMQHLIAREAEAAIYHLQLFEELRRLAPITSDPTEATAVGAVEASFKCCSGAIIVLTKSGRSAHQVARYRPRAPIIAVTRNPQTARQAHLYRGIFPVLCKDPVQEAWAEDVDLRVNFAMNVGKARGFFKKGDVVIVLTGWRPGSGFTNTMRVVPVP

Target: T1, SARM1 (bait of the affinity purification from Expi293F cells) (human) (UniProt Q6SZW1)
T1 sequence: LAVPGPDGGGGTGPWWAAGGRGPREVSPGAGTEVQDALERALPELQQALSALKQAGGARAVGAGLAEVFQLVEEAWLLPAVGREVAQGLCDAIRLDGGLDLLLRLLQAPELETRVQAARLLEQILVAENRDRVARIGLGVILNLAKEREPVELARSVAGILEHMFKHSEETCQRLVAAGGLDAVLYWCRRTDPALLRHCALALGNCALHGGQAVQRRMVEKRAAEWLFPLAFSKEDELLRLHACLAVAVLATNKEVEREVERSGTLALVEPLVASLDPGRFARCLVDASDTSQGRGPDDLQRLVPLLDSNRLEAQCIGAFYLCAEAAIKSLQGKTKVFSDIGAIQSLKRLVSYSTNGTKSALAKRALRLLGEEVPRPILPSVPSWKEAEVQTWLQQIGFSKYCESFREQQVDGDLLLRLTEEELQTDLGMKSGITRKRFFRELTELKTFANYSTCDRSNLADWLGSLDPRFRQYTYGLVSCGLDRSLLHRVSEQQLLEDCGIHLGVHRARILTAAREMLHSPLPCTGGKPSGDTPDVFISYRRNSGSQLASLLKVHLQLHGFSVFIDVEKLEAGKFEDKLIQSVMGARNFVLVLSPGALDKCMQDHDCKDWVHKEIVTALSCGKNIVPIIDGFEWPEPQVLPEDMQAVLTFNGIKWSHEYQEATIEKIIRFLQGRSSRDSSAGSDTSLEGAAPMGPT
Experiment: affinity purification with mass spectrometry

Substance: VDAC1 (from UniProt P21796 1-283)
- binding: binds

Substance: Pyruvate kinase M (PKM), endogenous in Expi293F cells (from UniProt P14618 1-531) (enzyme)
- binding: binds
